The supplement of paper PMC11348887
Structures can show the parent of a compound that is named as a salt. Some of the results follow. Small differences around the control level are noise.

The compounds below were run on hPSC-derived cortical neurons (WA09) (assay: total neurite length per nucleus (MAP2) z-score; higher = more neurite growth). Conditions: 5 µM; treatment: days 7-14 after plating, readout day 21.
With `CO[C@H]1CC[C@H](N2C(=O)CNc3ncc(-c4ccc(C(C)(C)O)nc4)nc32)CC1` the “total neurite length per nucleus (z-score)” value was -2.22.
In the case of `CCN(CC)CCOCCOC(=O)C1(c2ccccc2)CCCC1` [Pentoxyverine Citrate], the “total neurite length per nucleus (z-score)” value was -0.188.
For `CCCCOc1ccc(CC(=O)NO)cc1` [Bufexamac], the “total neurite length per nucleus (z-score)” value was 0.719.
In the case of `CCCc1nc(C(C)(C)O)c(C(=O)OCc2oc(=O)oc2C)n1Cc1ccc(-c2ccccc2-c2nnn[nH]2)cc1` [Olmesartan Medoxomil], the “total neurite length per nucleus (z-score)” value was -0.784.
For `CC1(O)CCC(C(C)(C)O)CC1` (configuration not stated) [Terpin hydrate], the “total neurite length per nucleus (z-score)” value was -0.536.
For `COc1cc2ncnc(Nc3ccc(Cl)cc3F)c2cc1OC`, the “total neurite length per nucleus (z-score)” value was 0.268.
For `FC(F)(F)c1ccc(CNc2ccc(Cc3c[nH]c4ncc(Cl)cc34)cn2)cn1` [Pexidartinib (PLX3397)], the “total neurite length per nucleus (z-score)” value was 0.175.
For `Clc1ccc(C(c2c[nH]c3ccccc23)c2c[nH]c3ccccc23)cc1`, the “total neurite length per nucleus (z-score)” value was -3.86.
In the case of `O=C(NCc1ccc(Oc2ccccc2)cc1)c1nc(-c2cc(Br)c(O)c(Br)c2)no1`, the “total neurite length per nucleus (z-score)” value was 1.31.

These compounds were tested on hPSC-derived cortical neurons (WA09) (assay: nucleus roundness z-score vs screen plate; higher = rounder nuclei (more mature)). Conditions: 5 µM; treatment: days 7-14 after plating, readout day 21.
`CCN(CC)CC#CCOC(=O)C(O)(c1ccccc1)C1CCCCC1` (configuration not stated) [Oxybutynin chloride] was tested, and the nucleus roundness z-score was 0.66.
`C=CC(=O)Nc1cccc(Nc2nc(Nc3ccc(Oc4ccnc(C(=O)NC)c4)cc3)ncc2F)c1` was tested, and the nucleus roundness z-score was -0.133.
In the case of `CC(C)n1c(/C=C/C(O)CC(O)CC(=O)O)c(-c2ccc(F)cc2)c2ccccc21` (configuration not stated) [Fluvastatin Sodium], the nucleus roundness z-score was -2.83.
`CN1C(=O)C(Cc2c[nH]c3ccccc23)NC1=S` (configuration not stated) [Necrostatin-1] showed a nucleus roundness z-score of 0.369.
For `Nc1ccc(S(=O)(=O)Nc2ncccn2)cc1` [Sodium sulfadiazine], the nucleus roundness z-score was 0.0175.
In the case of `Nc1nc(=O)c2nc(CNc3ccc(C(=O)N[C@@H](CCC(=O)O)C(=O)O)cc3)cnc2[nH]1` [Folic acid], the nucleus roundness z-score was 0.435.
In the case of `CO[C@H]1C[C@@H]2CC[C@@H](C)[C@@](O)(O2)C(=O)C(=O)N2CCCC[C@H]2C(=O)O[C@H]([C@H](C)C[C@@H]2CC[C@@H](OP(C)(C)=O)[C@H](OC)C2)CC(=O)[C@H](C)/C=C(\C)[C@@H](O)[C@@H](OC)C(=O)[C@H](C)C[C@H](C)/C=C/C=C/C=C/1C` [Ridaforolimus (Deforolimus, MK-8669)], the nucleus roundness z-score was -4.2.
`COc1ccccc1OCC(O)CN1CCN(CC(=O)Nc2c(C)cccc2C)CC1` (configuration not stated) [Ranolazine] showed a nucleus roundness z-score of 0.843.
With `Oc1ccc(OC2CCCCO2)cc1` (configuration not stated) [Deoxyarbutin] the nucleus roundness z-score was 0.458.
With `NCCCCC(NC(=O)C1CCCN1C(=O)C1CSSCC(N)C(=O)NC(Cc2ccc(O)cc2)C(=O)NC(Cc2ccccc2)C(=O)NC(CCC(N)=O)C(=O)NC(CC(N)=O)C(=O)N1)C(=O)NCC(N)=O` (configuration not stated) [Lypressin Acetate] the nucleus roundness z-score was -0.0896.
For `C=CC(=O)Nc1cc(Nc2nccc(-c3c[nH]c4ccccc34)n2)c(OC)cc1N(C)CCN(C)C`, the nucleus roundness z-score was -3.59.
`C[C@]12CCC3=C4CCC(=O)C=C4CC[C@H]3[C@@H]1CC[C@@]2(O)CC#N` [Dienogest] gave a nucleus roundness z-score of 0.0639.
`Cc1nnc(SCC2=C(C(=O)O)N3C(=O)[C@@H](NC(=O)Cn4cnnn4)[C@H]3SC2)s1` [Cefazolin Sodium] was tested, and the nucleus roundness z-score was 0.611.
`COc1ccc([C@@H]2Sc3ccccc3N(CCN(C)C)C(=O)[C@@H]2OC(C)=O)cc1` [Diltiazem HCl] showed a nucleus roundness z-score of 0.982.
Compound `NS(=O)(=O)c1cc2c(cc1Cl)NCNS2(=O)=O` [Hydrochlorothiazide] has a nucleus roundness z-score of -1.36.
With `CCN(CC)CCN(Cc1ccc(-c2ccc(C(F)(F)F)cc2)cc1)C(=O)Cn1c(SCc2ccc(F)cc2)nc(=O)c2c1CCC2` the nucleus roundness z-score was -1.52.
With `CCN1/C(=C/C(C)=O)Sc2ccc(OC)cc21` the nucleus roundness z-score was -0.00359.
Work on `CC(C)(C)c1cnc(CSc2cnc(NC(=O)C3CCNCC3)s2)o1` yielded a nucleus roundness z-score of -3.96.
`CS(=O)(=O)CCNCc1ccc(-c2ccc3ncnc(Nc4ccc(OCc5cccc(F)c5)c(Cl)c4)c3c2)o1` [Lapatinib] showed a nucleus roundness z-score of -1.01.
Work on `NCC[C@H](O)C(=O)N[C@@H]1C[C@H](N)[C@@H](O[C@H]2O[C@H](CN)[C@@H](O)[C@H](O)[C@H]2O)[C@H](O)[C@H]1O[C@H]1O[C@H](CO)[C@@H](O)[C@H](N)[C@H]1O` [Amikacin hydrate] yielded a nucleus roundness z-score of -1.14.
In the case of `O=C(NCCO)c1cccc(-c2cc(Nc3ccc(OC(F)(F)F)cc3)ncn2)c1`, the nucleus roundness z-score was 0.362.
In the case of `C#Cc1cccc(Nc2ncnc3cc(OC)c(OCCCCCCC(=O)NO)cc23)c1`, the nucleus roundness z-score was -3.71.
`O=C1Cc2cc(CCN3CCN(c4nsc5ccccc45)CC3)c(Cl)cc2N1` [Ziprasidone HCl] was tested, and the nucleus roundness z-score was -0.544.
